Reference: publication PMC2855077
These are yes or no findings as the source states them, for the method shown. In cells and extracts the contact can be indirect. Some entries that bind do so weakly or less than the wild type. For part of these data: Tags and fused reporters may be left off the sequences shown.

By UniProt entry, the sequences of proteins in these tests, tags left out.
UniProt P39948: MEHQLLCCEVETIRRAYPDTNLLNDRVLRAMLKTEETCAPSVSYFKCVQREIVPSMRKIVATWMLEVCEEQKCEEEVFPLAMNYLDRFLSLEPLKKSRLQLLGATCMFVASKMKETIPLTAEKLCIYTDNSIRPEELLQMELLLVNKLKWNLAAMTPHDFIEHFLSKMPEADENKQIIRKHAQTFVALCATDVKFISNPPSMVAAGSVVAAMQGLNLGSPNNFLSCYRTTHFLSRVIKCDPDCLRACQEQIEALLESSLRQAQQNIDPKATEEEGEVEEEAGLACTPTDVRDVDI
UniProt P30277: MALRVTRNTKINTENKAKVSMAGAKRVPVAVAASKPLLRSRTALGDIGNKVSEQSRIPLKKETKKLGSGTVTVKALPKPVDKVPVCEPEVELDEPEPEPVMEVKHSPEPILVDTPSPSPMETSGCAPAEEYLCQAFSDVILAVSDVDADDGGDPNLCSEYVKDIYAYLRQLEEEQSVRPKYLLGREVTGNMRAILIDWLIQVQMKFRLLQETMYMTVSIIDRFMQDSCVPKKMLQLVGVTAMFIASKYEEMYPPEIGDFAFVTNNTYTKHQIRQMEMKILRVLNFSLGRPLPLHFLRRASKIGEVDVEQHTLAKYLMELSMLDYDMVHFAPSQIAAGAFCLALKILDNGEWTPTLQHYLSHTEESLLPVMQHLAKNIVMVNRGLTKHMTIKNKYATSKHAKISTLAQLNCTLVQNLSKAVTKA
UniProt Q04827: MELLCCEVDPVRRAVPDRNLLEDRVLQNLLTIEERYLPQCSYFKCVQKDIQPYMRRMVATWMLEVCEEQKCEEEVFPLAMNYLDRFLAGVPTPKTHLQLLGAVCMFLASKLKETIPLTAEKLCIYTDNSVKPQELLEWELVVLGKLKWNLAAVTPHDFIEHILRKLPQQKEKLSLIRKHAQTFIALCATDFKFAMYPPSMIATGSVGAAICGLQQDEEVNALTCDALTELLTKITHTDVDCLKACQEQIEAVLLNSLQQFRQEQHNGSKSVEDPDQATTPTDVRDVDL
UniProt P62961: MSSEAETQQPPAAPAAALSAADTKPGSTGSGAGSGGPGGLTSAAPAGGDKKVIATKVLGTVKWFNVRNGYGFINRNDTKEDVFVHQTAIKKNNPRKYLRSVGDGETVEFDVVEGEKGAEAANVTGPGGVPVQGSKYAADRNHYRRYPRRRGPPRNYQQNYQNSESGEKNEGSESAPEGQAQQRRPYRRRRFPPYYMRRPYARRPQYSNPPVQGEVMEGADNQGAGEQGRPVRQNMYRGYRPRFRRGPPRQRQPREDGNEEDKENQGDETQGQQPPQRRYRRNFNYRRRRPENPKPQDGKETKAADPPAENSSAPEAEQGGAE

How the values were obtained:
[1] = target: cyclin D1 (rat (endogenous in rat hepatoma H-411E)) (UniProt P39948); assay: co-IP; nuclear and cytoplasmic extracts of nocodazole-treated (G2 arrested) rat hepatoma cells precipitated with anti-cyclin D1 or anti-YB-1 antibody, Protein A Sepharose (Supplementary Figure S3)
[2] = target: cyclin D1 (rat (endogenous in rat hepatoma H-411E)) (UniProt P39948); assay: co-IP; whole cell extracts of rat hepatoma cells (asynchronous and nocodazole-treated) precipitated with antibodies to cyclins A, B1, D1 and D2 overnight at 4°C, Protein A Sepharose; blot with YB-1 antibody
[3] = target: cyclin B1 (rat (endogenous in rat hepatoma H-411E)) (UniProt P30277); assay: as above
[4] = target: cyclin D2 (rat (endogenous in rat hepatoma H-411E)) (UniProt Q04827); assay: as above
[5] = target: Y-box binding protein YB-1 (rat (endogenous in rat hepatoma H-411E)) (UniProt P62961); assay: co-IP; nuclear and cytoplasmic extracts of nocodazole-treated (G2 arrested) rat hepatoma cells precipitated with anti-cyclin D1 or anti-YB-1 antibody, Protein A Sepharose (Supplementary Figure S3)
APYB77GFP [6] = target: APYB77GFP (UniProt Q06066); assay: co-IP; whole cell extracts of nocodazole-blocked (G2/M) rat hepatoma cells incubated with the fusion proteins for 3 and 18 hr, precipitated with GFP antibody, Protein A Sepharose; blot for cyclin D1
APYB26GFP [7] = target: T1, APYB26GFP (UniProt Q06066); assay: as above
T1 sequence: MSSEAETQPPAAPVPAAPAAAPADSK

APYB77GFP [8] = target: APYB77GFP (UniProt Q06066); assay: co-IP; whole cell extracts of asynchronous rat hepatoma cells incubated with the fusion proteins, precipitated with GFP antibody, Protein A Sepharose; blot for cyclin D1
APYB26GFP [9] = target: T1, APYB26GFP; assay: as above

Substance | binding [1] | binding [2] | binding [3] | binding [4] | binding [5] | binding (APYB77GFP [6]) | binding (APYB26GFP [7]) | binding (APYB77GFP [8]) | binding (APYB26GFP [9])
Y-box binding protein YB-1 (from UniProt P62961 1-322) | binds | binds | binds weakly | binds weakly |  |  |  |  | 
cyclin D1 (from UniProt P39948 1-295) |  |  |  |  | binds | binds | binds | no binding (condition: asynchronous cells (no nocodazole)) | no binding (condition: asynchronous cells (no nocodazole))
